{
  "source": "patent US20060257938A1",
  "about": "“Method of screening for drugs that block ligand binding to a lipid binding protein” (priority 2005, published 2006)",
  "molecules": {"B1": {"name": "72T 73W 74L (protein, listed as Rattus norvegicus)", "chain": "AFDGTWKVDRNENYEKFMEKMGINVVKRKLGAHDNLKLTITQEGNKFTVKESSNFRNIDVVFELGVDFAYSTWLGTELTGTWTMEGNKLVGKFKRVDNGKELIAVREISGNELIQTYTYEGVEAKRIFKKE", "modifications": "PEPTIDE (1)...(131) wild-type rat intestinal fatty acid binding protein"}, "B2": {"name": "72T 73Q 74A (protein, listed as Rattus norvegicus)", "chain": "B1 chain with W73Q, L74A", "modifications": "PEPTIDE (1)...(131) wild-type rat intestinal fatty acid binding protein"}, "B3": {"name": "21Y 78I 102I 72A (protein, listed as Rattus norvegicus)", "chain": "B1 chain with M21Y, T72A, W73A, L74D, L78I, L102I", "modifications": "PEPTIDE (1)...(131) wild-type rat intestinal fatty acid binding protein"}, "B4": {"name": "72T 73V 74S (protein, listed as Rattus norvegicus)", "chain": "B1 chain with W73V, L74S", "modifications": "PEPTIDE (1)...(131) wild-type rat intestinal fatty acid binding protein"}, "B5": {"name": "72S 73M 74A (protein, listed as Rattus norvegicus)", "chain": "B1 chain with T72S, W73M, L74A", "modifications": "PEPTIDE (1)...(131) wild-type rat intestinal fatty acid binding protein"}, "B6": {"name": "72T 73V 74N (protein, listed as Rattus norvegicus)", "chain": "B1 chain with W73V, L74N", "modifications": "PEPTIDE (1)...(131) wild-type rat intestinal fatty acid binding protein"}, "B7": {"name": "72S 73P 74I (protein, listed as Rattus norvegicus)", "chain": "B1 chain with T72S, W73P, L74I", "modifications": "PEPTIDE (1)...(131) wild-type rat intestinal fatty acid binding protein"}, "B8": {"name": "72A 73P 74V (protein, listed as Rattus norvegicus)", "chain": "B1 chain with T72A, W73P, L74V", "modifications": "PEPTIDE (1)...(131) wild-type rat intestinal fatty acid binding protein"}, "B9": {"name": "18V 31A 73W 72A (protein, listed as Rattus norvegicus)", "chain": "B1 chain with M18V, G31A, T72A, L74D", "modifications": "PEPTIDE (1)...(131) wild-type rat intestinal fatty acid binding protein"}, "B10": {"name": "72A 73W 74V (protein, listed as Rattus norvegicus)", "chain": "B1 chain with T72A, L74V", "modifications": "PEPTIDE (1)...(131) wild-type rat intestinal fatty acid binding protein"}, "B11": {"name": "72T 73V 74A (protein, listed as Rattus norvegicus)", "chain": "B1 chain with W73V, L74A", "modifications": "PEPTIDE (1)...(131) wild-type rat intestinal fatty acid binding protein"}, "B12": {"name": "72G 73F 74E (protein, listed as Rattus norvegicus)", "chain": "B1 chain with T72G, W73F, L74E", "modifications": "PEPTIDE (1)...(131) wild-type rat intestinal fatty acid binding protein"}, "B13": {"name": "18I 31I 55M 73V 72A (protein, listed as Rattus norvegicus)", "chain": "B1 chain with M18I, G31I, F55M, T72A, W73V, L74D", "modifications": "PEPTIDE (1)...(131) wild-type rat intestinal fatty acid binding protein"}},
  "note": "Positions count from the first letter of the chain named.",
  "data": [
    {"assay": "Baseline fluorescence ratio Ro of probe in absence of analyte", "details": "baseline fluorescence ratio of probe", "values": [
      {"molecule": "B1", "Ro": 0.292},
      {"molecule": "B2", "Ro": 0.257},
      {"molecule": "B3", "Ro": 0.291},
      {"molecule": "B4", "Ro": 0.241},
      {"molecule": "B5", "Ro": 0.358},
      {"molecule": "B6", "Ro": 0.280},
      {"molecule": "B7", "Ro": 0.324},
      {"molecule": "B8", "Ro": 0.377},
      {"molecule": "B9", "Ro": 0.352},
      {"molecule": "B10", "Ro": 0.393},
      {"molecule": "B11", "Ro": 0.242},
      {"molecule": "B12", "Ro": 0.381},
      {"molecule": "B13", "Ro": 0.362}
    ]},
    {"assay": "Baseline fluorescence ratio Ro of probe in absence of analyte", "details": "baseline fluorescence ratio of probe, no fatty acid", "values": [
      {"molecule": "B8", "Ro": 0.377},
      {"molecule": "B10", "Ro": 0.393}
    ]}
  ]
}
